Experimental data: PubChem BioAssay AID1259265 (Sanger Institute, 2017)

Aim: 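Retest single siRNAs, four per gene, for boosting anchor drug effects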 (follow-up of hits)
Cells: SW620 human colorectal cancer cells
Knock-down reagent: single siRNA against human genes
Treatment: anchor drug given a day after transfection: BYL719 at 1 µM, cetuximab at 5 µg/ml, trametinib at 10 nM; DMSO alone as the comparison arm
Measured: 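Viability of each well as a fraction of the non-targeting pool 2 control, mean of replicates; synergy score weighing the combined effect against siRNA and drug alone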
Scale: synergy score with trametinib: higher = stronger synergy (synthetic lethal) with trametinib; synergy score with BYL719: higher = stronger synergy (synthetic lethal) with BYL719; synergy score with cetuximab: higher = stronger synergy (synthetic lethal) with cetuximab; viability, siRNA alone (DMSO) and viability, siRNA plus trametinib: higher = more surviving cells
Active means: 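Active if the synergy score is over 0.10 for any of the three anchor drugs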
This is one part, drawn at random, of 160 reagents tested. 31 of them (19%) were called active. 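Calls refer to single siRNAs; agreement across several siRNAs per gene and other cell lines is not shown.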 Reagents against one gene are numbered here. No viability above 1 is reported: the scale is capped. Not given: the amount of reagent, the time to read-out.

gene,reagent no.,synergy score with trametinib,synergy score with BYL719,synergy score with cetuximab,"viability, siRNA alone (DMSO) (fraction of control)","viability, siRNA plus trametinib (fraction of control)",outcome
SYNCRIP (GeneID 10492),1,0.132,-0.0694,0.0033,0.775,0.289,active
SYNCRIP (GeneID 10492),2,-0.0316,-0.201,-0.2,0.879,0.508,inactive
SYNCRIP (GeneID 10492),3,0.0273,-0.161,-0.086,0.664,0.333,inactive
SYNCRIP (GeneID 10492),4,-0.0572,-0.185,-0.0929,0.727,0.452,inactive
ACVR1 (GeneID 90),1,-0.0551,-0.288,-0.122,1,0.598,inactive
ACVR1 (GeneID 90),2,-0.00259,-0.211,-0.122,1,0.545,inactive
ACVR1 (GeneID 90),3,-0.00433,-0.19,-0.122,1,0.547,inactive
ACVR1 (GeneID 90),4,-0.0223,-0.263,0.027,1,0.565,inactive
PAK1 (GeneID 5058),1,0.0659,-0.139,-0.0976,0.96,0.455,inactive
PAK1 (GeneID 5058),2,-0.0473,-0.0691,0.0189,0.527,0.333,inactive
PAK1 (GeneID 5058),3,0.149,0.0728,-0.174,0.856,0.315,active
PAK1 (GeneID 5058),4,0.00846,-0.236,-0.0534,0.959,0.512,inactive
EPHA6 (GeneID 285220),1,0.0811,-0.209,-0.0915,0.785,0.345,inactive
EPHA6 (GeneID 285220),2,0.153,-0.0255,0.0578,0.864,0.316,active
EPHA6 (GeneID 285220),3,0.0831,-0.144,0.077,0.918,0.415,inactive
EPHA6 (GeneID 285220),4,0.079,0.0103,-0.0799,1,0.464,inactive
PFKFB3 (GeneID 5209),1,-0.0614,-0.17,0.0595,0.921,0.561,inactive
PFKFB3 (GeneID 5209),2,0.186,0.00853,0.021,1,0.357,active
PFKFB3 (GeneID 5209),3,-0.109,-0.147,0.000234,1,0.651,inactive
PFKFB3 (GeneID 5209),4,0.0389,-0.0992,-0.129,0.874,0.436,inactive
STK36 (GeneID 27148),1,-0.04,-0.349,-0.177,0.604,0.367,inactive
STK36 (GeneID 27148),2,0.0152,-0.0993,-0.0826,0.975,0.514,inactive
STK36 (GeneID 27148),3,-0.0273,-0.281,-0.0621,0.831,0.478,inactive
STK36 (GeneID 27148),4,-0.0107,-0.132,-0.118,0.955,0.529,inactive
CDKN2D (GeneID 1032),1,0.189,-0.106,-0.0333,0.739,0.212,active
CDKN2D (GeneID 1032),2,0.212,0.11,0.0887,1,0.33,active
CDKN2D (GeneID 1032),3,-0.146,-0.306,-0.122,1,0.689,inactive
CDKN2D (GeneID 1032),4,-0.0334,0.0156,-0.00771,0.567,0.341,inactive
SYK (GeneID 6850),1,0.00821,0.00166,-0.0927,0.475,0.249,inactive
SYK (GeneID 6850),2,-0.0195,-0.2,-0.0431,0.81,0.459,inactive
SYK (GeneID 6850),3,0.122,-0.0166,-0.0627,0.62,0.215,active
SYK (GeneID 6850),4,-0.0915,-0.0989,-0.0543,1,0.634,inactive
AK2 (GeneID 204),1,-0.0198,-0.152,0.0318,1,0.562,inactive
AK2 (GeneID 204),2,0.0367,-0.123,-0.117,1,0.506,inactive
AK2 (GeneID 204),3,-0.123,-0.306,-0.122,1,0.665,inactive
AK2 (GeneID 204),4,0.147,-0.0149,0.027,1,0.395,active
HUNK (GeneID 30811),1,0.00773,0.0252,-0.123,0.904,0.483,inactive
HUNK (GeneID 30811),2,0.115,-0.0354,-0.0473,0.635,0.229,active
HUNK (GeneID 30811),3,0.0247,0.0364,-0.122,1,0.518,inactive
HUNK (GeneID 30811),4,0.111,0.014,-0.0188,0.763,0.303,active
BMPR2 (GeneID 659),1,-0.114,-0.116,-0.122,1,0.657,inactive
BMPR2 (GeneID 659),2,0.0319,-0.147,0.000886,1,0.511,inactive
BMPR2 (GeneID 659),3,-0.0505,-0.257,-0.122,1,0.593,inactive
BMPR2 (GeneID 659),4,-0.242,-0.301,-0.122,1,0.785,inactive
HSPB8 (GeneID 26353),1,0.025,-0.2,-0.0493,0.865,0.445,inactive
HSPB8 (GeneID 26353),2,-0.0641,-0.305,-0.0424,1,0.607,inactive
HSPB8 (GeneID 26353),3,-0.0224,-0.346,0.00546,0.874,0.497,inactive
HSPB8 (GeneID 26353),4,0.0589,-0.0113,0.184,0.978,0.472,
IRAK3 (GeneID 11213),1,-0.00789,-0.402,-0.14,0.64,0.355,inactive
IRAK3 (GeneID 11213),2,0.0413,-0.0567,-0.063,0.739,0.36,inactive
IRAK3 (GeneID 11213),3,-0.151,-0.293,-0.0945,0.722,0.542,inactive
IRAK3 (GeneID 11213),4,-0.0198,-0.129,-0.118,0.925,0.522,inactive
CDK6 (GeneID 1021),1,0.163,-0.152,0.0187,1,0.38,active
CDK6 (GeneID 1021),2,0.0147,-0.17,-0.0737,0.71,0.37,inactive
CDK6 (GeneID 1021),3,0.102,-0.281,-0.122,1,0.44,active
CDK6 (GeneID 1021),4,0.156,-0.169,-0.0531,0.989,0.381,active

Entries above called active:
gene,reagent no.,synergy score with trametinib,synergy score with BYL719,synergy score with cetuximab,"viability, siRNA alone (DMSO) (fraction of control)","viability, siRNA plus trametinib (fraction of control)",outcome
SYNCRIP (GeneID 10492),1,0.132,-0.0694,0.0033,0.775,0.289,active
PAK1 (GeneID 5058),3,0.149,0.0728,-0.174,0.856,0.315,active
EPHA6 (GeneID 285220),2,0.153,-0.0255,0.0578,0.864,0.316,active
PFKFB3 (GeneID 5209),2,0.186,0.00853,0.021,1,0.357,active
CDKN2D (GeneID 1032),1,0.189,-0.106,-0.0333,0.739,0.212,active
CDKN2D (GeneID 1032),2,0.212,0.11,0.0887,1,0.33,active
SYK (GeneID 6850),3,0.122,-0.0166,-0.0627,0.62,0.215,active
AK2 (GeneID 204),4,0.147,-0.0149,0.027,1,0.395,active
HUNK (GeneID 30811),2,0.115,-0.0354,-0.0473,0.635,0.229,active
HUNK (GeneID 30811),4,0.111,0.014,-0.0188,0.763,0.303,active
CDK6 (GeneID 1021),1,0.163,-0.152,0.0187,1,0.38,active
CDK6 (GeneID 1021),3,0.102,-0.281,-0.122,1,0.44,active
CDK6 (GeneID 1021),4,0.156,-0.169,-0.0531,0.989,0.381,active
